Assay results as given in article PMC13132549.
No constants are given. Whether binding was seen depends on the method and setting.

By UniProt entry, the sequences of proteins in these tests, tags left out. Residues count along the entry.
UniProt P22736, residues 356-598: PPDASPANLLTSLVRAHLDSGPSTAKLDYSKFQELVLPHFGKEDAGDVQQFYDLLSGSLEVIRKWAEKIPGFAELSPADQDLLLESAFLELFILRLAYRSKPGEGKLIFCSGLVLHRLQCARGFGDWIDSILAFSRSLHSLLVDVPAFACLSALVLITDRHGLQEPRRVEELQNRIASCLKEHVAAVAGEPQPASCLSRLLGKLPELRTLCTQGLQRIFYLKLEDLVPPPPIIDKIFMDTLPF

Target: Nur77 (NR4A1) ligand-binding domain (LBD) (human) (UniProt P22736)
Assay: SEC-MALS; 100 µL of each protein at 5 mg/mL (180 µM) injected; 40 mM potassium phosphate pH 7.4, 200 mM KCl; 25 °C; both purified

“Nur77 (NR4A1) ligand-binding domain (LBD) (from UniProt P22736 356-598) (domain or fragment)” was tested, and the binding was “no binding (tested: 180 µM)”.
